In paper PMC3562248:

Target: histone H3 N-terminal tail peptide (aa 1-21), unmodified, C-terminal biotin, P68431
Assay: affinity purification with mass spectrometry; biotinylated H3 1-21 peptide immobilised on streptavidin agarose beads, 2 mg HeLa nuclear extract, 3 h at 4°C, wash with 250 mM KCl; Coomassie-stained bands cut out and identified by mass spectrometry; only the target purified
Conditions: remark: other sources report otherwise

B1: Sin3A (endogenous, HeLa), Q96ST3 1-1273 (protein)
chain: MKRRLDDQESPVYAAQQRRIPGSTEAFPHQHRVLAPAPPVYEAVSETMQSATGIQYSVTPSYQVSAMPQSSGSHGPAIAAVHSSHHHPTAVQPHGGQVVQSHAHPAPPVAPVQGQQQFQRLKVEDALSYLDQVKLQFGSQPQVYNDFLDIMKEFKSQSIDTPGVISRVSQLFKGHPDLIMGFNTFLPPGYKIEVQTNDMVNVTTPGQVHQIPTHGIQPQPQPPPQHPSQPSAQSAPAPAQPAPQPPPAKVSKPSQLQAHTPASQQTPPLPPYASPRSPPVQPHTPVTISLGTAPSLQNNQPVEFNHAINYVNKIKNRFQGQPDIYKAFLEILHTYQKEQRNAKEAGGNYTPALTEQEVYAQVARLFKNQEDLLSEFGQFLPDANSSVLLSKTTAEKVDSVRNDHGGTVKKPQLNNKPQRPSQNGCQIRRHPTGTTPPVKKKPKLLNLKDSSMADASKHGGGTESLFFDKVRKALRSAEAYENFLRCLVIFNQEVISRAELVQLVSPFLGKFPELFNWFKNFLGYKESVHLETYPKERATEGIAMEIDYASCKRLGSSYRALPKSYQQPKCTGRTPLCKEVLNDTWVSFPSWSEDSTFVSSKKTQYEEHIYRCEDERFELDVVLETNLATIRVLEAIQKKLSRLSAEEQAKFRLDNTLGGTSEVIHRKALQRIYADKAADIIDGLRKNPSIAVPIVLKRLKMKEEEWREAQRGFNKVWREQNEKYYLKSLDHQGINFKQNDTKVLRSKSLLNEIESIYDERQEQATEENAGVPVGPHLSLAYEDKQILEDAAALIIHHVKRQTGIQKEDKYKIKQIMHHFIPDLLFAQRGDLSDVEEEEEEEMDVDEATGAVKKHNGVGGSPPKSKLLFSNTAAQKLRGMDEVYNLFYVNNNWYIFMRLHQILCLRLLRICSQAERQIEEENREREWEREVLGIKRDKSDSPAIQLRLKEPMDVDVEDYYPAFLDMVRSLLDGNIDSSQYEDSLREMFTIHAYIAFTMDKLIQSIVRQLQHIVSDEICVQVTDLYLAENNNGATGGQLNTQNSRSLLESTYQRKAEQLMSDENCFKLMFIQSQGQVQLTIELLDTEEENSDDPVEAERWSDYVERYMNSDTTSPELREHLAQKPVFLPRNLRRIRKCQRGREQQEKEGKEGNSKKTMENVDSLDKLECRFKLNSYKMVYVIKSEDYMYRRTALLRAHQSHERVSKRLHQRFQAWVDKWTKEHVPREMAAETSKWLMGEGLEGLVPCTTTCDTETLHFVSINKYRVKYGTVFKAP
modifications: here or on the partner: C-terminal biotin
In the case of B1, the binding is reported as “no binding”.

No constants are given. Whether binding was seen depends on the method and setting. In cells and extracts the contact can be indirect. A yes stands for co-enrichment or nearness to the bait. Other partners may have been found. No binding means not detected with the bait.
